PubChem BioAssay AID1224830 | NIAID | 2016

Assay: 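Regulators of TLR4 signalling towards TNF-alpha in macrophage-like cells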 (primary screen)
Cell system: human THP-1 monocytic leukaemia cells, TNF dual-luciferase reporter clone, PMA-differentiated to macrophage-like cells
Knock-down reagent: siRNA pool against human genes, 50 nM
Time to read-out: LPS for 4 h, given about 3 days after siRNA transfection
Challenge: bacterial LPS (TLR4 ligand), 10 ng/ml
Read-out: 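Ratio of firefly to renilla light, scaled to the plate median and expressed as a robust z-score per replicate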
Scale: TNF reporter robust z-score: higher = stronger TNF reporter response to LPS
Hit rule: 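a well is active when its z-score exceeds 2.8 or falls below -1.5; control wells carry no call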
The whole screen tested about 18,000 reagents; shown is a part drawn at random. About 2,900 of all reagents (16%) count as active. 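Calls are made per well; low scores hint the gene aids the LPS response, high scores that it dampens it.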 Repeated entries: four replicate wells of each siRNA pool.

The first 10 entries as a preview:
Gene	TNF reporter robust z-score	activity call
ELOC (GeneID 6921)	-0.92	inactive
ELOC (GeneID 6921)	0.03	inactive
ELOC (GeneID 6921)	0.67	inactive
ELOC (GeneID 6921)	0	inactive
ANKRD44 (GeneID 91526)	-0.69	inactive
ANKRD44 (GeneID 91526)	0	inactive
ANKRD44 (GeneID 91526)	-0.21	inactive
ANKRD44 (GeneID 91526)	-0.09	inactive
ISG20 (GeneID 3669)	0.96	inactive
ISG20 (GeneID 3669)	3.16	active

Results, from the start:
Gene	TNF reporter robust z-score	activity call
ELOC (GeneID 6921)	-0.92	inactive
ELOC (GeneID 6921)	0.03	inactive
ELOC (GeneID 6921)	0.67	inactive
ELOC (GeneID 6921)	0	inactive
ANKRD44 (GeneID 91526)	-0.69	inactive
ANKRD44 (GeneID 91526)	0	inactive
ANKRD44 (GeneID 91526)	-0.21	inactive
ANKRD44 (GeneID 91526)	-0.09	inactive
ISG20 (GeneID 3669)	0.96	inactive
ISG20 (GeneID 3669)	3.16	active
ISG20 (GeneID 3669)	0.69	inactive
ISG20 (GeneID 3669)	3.61	active
SLC30A4 (GeneID 7782)	0.07	inactive
SLC30A4 (GeneID 7782)	-0.72	inactive
SLC30A4 (GeneID 7782)	-0.46	inactive
SLC30A4 (GeneID 7782)	-0.67	inactive
KRTAP4-1 (GeneID 85285)	1.1	inactive
KRTAP4-1 (GeneID 85285)	2.22	inactive
KRTAP4-1 (GeneID 85285)	-0.12	inactive
KRTAP4-1 (GeneID 85285)	-0.2	inactive
TNXB (GeneID 7148)	-0.56	inactive
TNXB (GeneID 7148)	-0.02	inactive
TNXB (GeneID 7148)	-0.18	inactive
TNXB (GeneID 7148)	-0.54	inactive
SLC13A5 (GeneID 284111)	0.79	inactive
SLC13A5 (GeneID 284111)	0.58	inactive
SLC13A5 (GeneID 284111)	0.87	inactive
SLC13A5 (GeneID 284111)	0.47	inactive
NUDT22 (GeneID 84304)	-0.68	inactive
NUDT22 (GeneID 84304)	-0.99	inactive
NUDT22 (GeneID 84304)	-0.9	inactive
A4GNT (GeneID 51146)	-0.8	inactive
A4GNT (GeneID 51146)	-1.19	inactive
A4GNT (GeneID 51146)	-0.48	inactive
A4GNT (GeneID 51146)	0.09	inactive
SPDYA (GeneID 245711)	-0.18	inactive
SPDYA (GeneID 245711)	0.06	inactive
SPDYA (GeneID 245711)	0.19	inactive
SPDYA (GeneID 245711)	0.49	inactive
FANCG (GeneID 2189)	-0.94	inactive
FANCG (GeneID 2189)	1.99	inactive
FANCG (GeneID 2189)	-1.97	active
FANCG (GeneID 2189)	-1.4	inactive
PPP1R21 (GeneID 129285)	-0.69	inactive
PPP1R21 (GeneID 129285)	-0.09	inactive
PPP1R21 (GeneID 129285)	-0.73	inactive
PPP1R21 (GeneID 129285)	-0.51	inactive
RNF187 (GeneID 149603)	1.96	inactive
RNF187 (GeneID 149603)	2.32	inactive
RNF187 (GeneID 149603)	1.73	inactive
RNF187 (GeneID 149603)	-1.7	active
MRPS33 (GeneID 51650)	-0.51	inactive
MRPS33 (GeneID 51650)	-1.29	inactive
MRPS33 (GeneID 51650)	-1.09	inactive
MRPS33 (GeneID 51650)	-1.35	inactive
KATNA1 (GeneID 11104)	0.67	inactive
KATNA1 (GeneID 11104)	-0.57	inactive
KATNA1 (GeneID 11104)	-0.98	inactive
KATNA1 (GeneID 11104)	1.84	inactive
NCOA2 (GeneID 10499)	0	inactive
NCOA2 (GeneID 10499)	0.43	inactive
NCOA2 (GeneID 10499)	-0.32	inactive
NCOA2 (GeneID 10499)	-0.04	inactive
SLC25A30 (GeneID 253512)	-1.69	active
SLC25A30 (GeneID 253512)	-0.86	inactive
SLC25A30 (GeneID 253512)	-1.29	inactive
SLC25A30 (GeneID 253512)	-1.12	inactive
RHOBTB1 (GeneID 9886)	0.26	inactive
RHOBTB1 (GeneID 9886)	0.14	inactive
RHOBTB1 (GeneID 9886)	-0.67	inactive
RHOBTB1 (GeneID 9886)	-0.06	inactive
GPR107 (GeneID 57720)	-0.41	inactive
GPR107 (GeneID 57720)	-0.29	inactive
GPR107 (GeneID 57720)	-0.32	inactive
GPR107 (GeneID 57720)	-0.49	inactive
CD28 (GeneID 940)	-1.81	active
CD28 (GeneID 940)	-0.97	inactive
CD28 (GeneID 940)	-0.94	inactive
CD28 (GeneID 940)	1.87	inactive
PRG4 (GeneID 10216)	-0.45	inactive
PRG4 (GeneID 10216)	-0.51	inactive
PRG4 (GeneID 10216)	1.83	inactive
PRG4 (GeneID 10216)	1.69	inactive
AKT3 (GeneID 10000)	-0.27	inactive
AKT3 (GeneID 10000)	-0.08	inactive
AKT3 (GeneID 10000)	-1.16	inactive
AKT3 (GeneID 10000)	-0.65	inactive
RNF130 (GeneID 55819)	-0.59	inactive
RNF130 (GeneID 55819)	1.83	inactive
RNF130 (GeneID 55819)	1.08	inactive
RNF130 (GeneID 55819)	0.32	inactive
CISD1 (GeneID 55847)	-0.29	inactive
CISD1 (GeneID 55847)	-0.44	inactive
CISD1 (GeneID 55847)	-0.54	inactive
CISD1 (GeneID 55847)	-0.28	inactive
NUSAP1 (GeneID 51203)	-1.26	inactive
NUSAP1 (GeneID 51203)	-0.63	inactive
NUSAP1 (GeneID 51203)	-0.52	inactive
NUSAP1 (GeneID 51203)	-0.58	inactive
ARRDC1-AS1 (GeneID 85026)	0.01	inactive
ARRDC1-AS1 (GeneID 85026)	1.19	inactive
ARRDC1-AS1 (GeneID 85026)	0.97	inactive
ARRDC1-AS1 (GeneID 85026)	0.49	inactive
PRDM12 (GeneID 59335)	-0.27	inactive
PRDM12 (GeneID 59335)	0.5	inactive
PRDM12 (GeneID 59335)	-1.36	inactive
PRDM12 (GeneID 59335)	0.09	inactive
FAM50A (GeneID 9130)	-0.51	inactive
FAM50A (GeneID 9130)	0.54	inactive
FAM50A (GeneID 9130)	1.11	inactive
FAM50A (GeneID 9130)	-0.39	inactive
